This note sets out measurements from publication PMC9594046, “Identification of Histone Peptide Binding Specificity and Small-Molecule Ligands for the TRIM33α and TRIM33β Bromodomains” (ACS Chemical Biology, 2022).

Series [1] in a line: AlphaScreen TruHits Assay 2 (pre-incubation of donor beads). To be noted: values >2 indicate significant assay interference. For orientation: In Alpha technology, singlet oxygen from a donor bead excites a nearby acceptor bead.
Series [2] is described as follows: AlphaScreen TruHits Assay 1 (pre-incubation of both beads). To be noted: values >2 indicate significant assay interference.

In the case of `COC(=O)c1ccc2nc(-c3cnc(C)[nH]3)c(NC3CCCCC3)n2c1` [Compound 6], the “TruHits Assay 2: difference from DMSO average, normalised against standard deviation of DMSO control” value amounted to 2.09 in series [1] (31.25 µM compound); 2.481 in series [1] (62.5 µM compound); 3.088 in series [1] (125 µM compound); 3.547 in series [1] (250 µM compound); 3.836 in series [1] (500 µM compound). Further, the “TruHits Assay 1: difference from DMSO average, normalised against standard deviation of DMSO control” value in series [2] (31.25 µM compound) is reported as 21.01; in series [2] (62.5 µM compound) it was 19.76; in series [2] (125 µM compound), 23.8; in series [2] (250 µM compound), 29.86; in series [2] (500 µM compound) it was 35.27.
`CC(C)(C)Nc1c(-c2c[nH]c3ncccc23)nc2ccccn12` [Compound 7]: the “TruHits Assay 2: difference from DMSO average, normalised against standard deviation of DMSO control” value is 0.7919 in series [1] (31.25 µM compound); 1.272 in series [1] (62.5 µM compound); 1.654 in series [1] (125 µM compound); 2.277 in series [1] (250 µM compound); 3.225 in series [1] (500 µM compound). In addition, the “TruHits Assay 1: difference from DMSO average, normalised against standard deviation of DMSO control” value is 2.874 in series [2] (31.25 µM compound); 8.919 in series [2] (62.5 µM compound); 17.81 in series [2] (125 µM compound); 25.27 in series [2] (250 µM compound); 32.73 in series [2] (500 µM compound).
On to `COc1ccc(Nc2c(-c3[nH]cnc3C)nc3ccc(Br)cn23)cc1` [Compound 3], for which the “TruHits Assay 2: difference from DMSO average, normalised against standard deviation of DMSO control” value in series [1] (31.25 µM compound) is recorded as 3.997; in series [1] (62.5 µM compound) it was 4.036; in series [1] (125 µM compound), 4.06; in series [1] (250 µM compound) it was 4.063; in series [1] (500 µM compound), 4.064. The “TruHits Assay 1: difference from DMSO average, normalised against standard deviation of DMSO control” value in series [2] (31.25 µM compound) is given as 42.87; in series [2] (62.5 µM compound), 43.34; in series [2] (125 µM compound), 43.59; in series [2] (250 µM compound), 43.68; in series [2] (500 µM compound), 43.68.
For `Cc1nc[nH]c1-c1nc2ccccn2c1NCCN1CCOCC1` [Compound 4], the “TruHits Assay 2: difference from DMSO average, normalised against standard deviation of DMSO control” value is recorded as 2.074 in series [1] (31.25 µM compound); 2.893 in series [1] (62.5 µM compound); 3.158 in series [1] (125 µM compound); 3.004 in series [1] (250 µM compound); 3.662 in series [1] (500 µM compound). Further, the “TruHits Assay 1: difference from DMSO average, normalised against standard deviation of DMSO control” value is reported as 1.973 in series [2] (31.25 µM compound); 2.577 in series [2] (62.5 µM compound); 3.961 in series [2] (125 µM compound); 2.642 in series [2] (250 µM compound); 4.385 in series [2] (500 µM compound).
In the case of `Cc1nc[nH]c1-c1nc2ccccn2c1NC1CCCCC1` [Compound 5], the “TruHits Assay 2: difference from DMSO average, normalised against standard deviation of DMSO control” value in series [1] (31.25 µM compound) is on record as 3.844; in series [1] (62.5 µM compound), 3.942; in series [1] (125 µM compound), 4.025; in series [1] (250 µM compound) it was 4.042; in series [1] (500 µM compound) it was 4.061. The “TruHits Assay 1: difference from DMSO average, normalised against standard deviation of DMSO control” value turned out to be 40.87 in series [2] (31.25 µM compound); 42.33 in series [2] (62.5 µM compound); 42.97 in series [2] (125 µM compound); 43.37 in series [2] (250 µM compound); 43.64 in series [2] (500 µM compound).
